In PubChem BioAssay AID2551 (National Center for Advancing Translational Sciences (NCATS), 2010):
Screen size: about 310,000 compounds; about 17,000 (5.5%) were called active. Inconclusive means that the source gave no clear call. Such entries were picked first, then a sample of the others. The call rests on the fitted dose curve; in most records, active means well fitted inhibition curve with a large enough effect; inconclusive means small, poorly fitted or top-dose-only effect, or effect the other way; inactive means no such curve, though single readings can be large or run the other way. A potency beside an inconclusive call is a rough fit, not a confirmed value.

Sequences of proteins named here, by UniProt entry; tags and fusion partners are left off. A change or cut given only in a name is not applied to a line headed by its entry.
UniProt P51450: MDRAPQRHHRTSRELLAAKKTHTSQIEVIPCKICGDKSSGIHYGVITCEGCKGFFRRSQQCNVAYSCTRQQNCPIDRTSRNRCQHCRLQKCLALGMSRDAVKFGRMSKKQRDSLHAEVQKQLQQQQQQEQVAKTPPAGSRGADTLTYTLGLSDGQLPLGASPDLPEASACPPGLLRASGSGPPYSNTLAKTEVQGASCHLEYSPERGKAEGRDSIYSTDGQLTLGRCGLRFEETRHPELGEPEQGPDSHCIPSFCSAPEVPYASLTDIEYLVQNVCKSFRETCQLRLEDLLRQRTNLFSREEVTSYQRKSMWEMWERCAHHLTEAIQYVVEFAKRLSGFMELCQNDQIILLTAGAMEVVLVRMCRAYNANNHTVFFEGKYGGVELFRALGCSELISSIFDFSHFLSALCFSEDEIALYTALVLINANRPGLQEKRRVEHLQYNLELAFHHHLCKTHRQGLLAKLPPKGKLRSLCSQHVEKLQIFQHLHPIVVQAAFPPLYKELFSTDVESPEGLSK

Each compound was assayed against Nuclear receptor ROR-gamma (Mus musculus) (UniProt P51450) (assay: qHTS for inhibitors of ROR gamma transcriptional activity). Details: Drosophila S2 Gal4-RORgamma UAS-luciferase reporter, 20 h; series mostly up to 53.6 µM.
Summary of the method: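 Drosophila S2 cells stably expressing Gal4-DBD/mouse RORγ fusion under metallothionein promoter plus UAS-luciferase; compound 1 h, then 700 uM CuSO4 induction for 20 h at ambient temperature; inhibition read as reduced luminescence.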
Further: nearly all actives have a fitted effect of over 60% in size.
Potency means the concentration at half of the fitted maximal effect.

Row | SMILES | Potency
1 | Cc1ccc(-c2[nH]c(-c3ccc(Cl)cc3)nc2SCC(=O)NCC2CCCO2)cc1 (configuration not stated) | inconclusive: 35.5 µM [inhibitor, single point]
2 | Cc1ccc2nc(NC(=O)CN(C)S(=O)(=O)c3ccc(Br)s3)sc2c1 | inconclusive: 35.5 µM [inhibitor, single point]
3 | NNC(=O)c1[nH]c(-c2ccccc2)cc1-c1ccccc1 | inconclusive: 22.4 µM [inhibitor, single point]
4 | COc1ccc(-c2cn[nH]c2-c2ccc(OCc3ccc([N+](=O)[O-])cc3)cc2O)cc1OC | inconclusive: 3.55 µM [inhibitor, partial curve]
5 | CN(C)c1nc(NCc2ccccc2)nc(N/N=C/c2ccc(Br)cc2)n1 | active: 2.82 µM
6 | O=C(CN1CCN(c2ccccn2)CC1)Nc1cc(C(F)(F)F)ccc1Cl | inactive
7 | CC(CN1CCOCC1)OC(=O)c1ccc(Br)cc1 (configuration not stated) | active: 2 µM
8 | Cc1ccc(S(=O)(=O)N/N=C/c2cccc3c2OCCO3)cc1 | inconclusive: 10 µM [activator, partial curve]
9 | O=C(Cc1ccccc1)Nc1ccnn1C1CCN(Cc2nccs2)CC1 | inactive
10 | O=C(Oc1cccc([N+](=O)[O-])c1)N1CCCCC1 | inactive
11 | COC(=O)C(Cc1c[nH]c2ccccc12)NC(C)=O (configuration not stated) | active: 14.1 µM
12 | N#C/C(=N\Nc1ccc([N+](=O)[O-])cc1)C(N)=S | inconclusive: 17.8 µM [inhibitor, single point]
13 | Cc1ccc(C(=O)Nc2c3c(nn2C(C)(C)C)CS(=O)(=O)C3)cc1[N+](=O)[O-] | inactive
14 | Cc1nc2cc(N3CCN(C)CC3)c(NC(=O)Cc3ccccc3)cc2c(=O)n1Cc1ccccc1 | active: 7.08 µM
15 | S=C(Nc1ccccc1)c1nc2ccccc2s1 | active: 1.12 µM
16 | O=S(=O)(NCC1CCCO1)c1ccc(Cl)nc1 (configuration not stated) | inactive
17 | CCOc1cc(NC(=S)NCC(C)C)c(OCC)cc1NC(=O)c1ccco1 | active: 5.01 µM
18 | COc1ccc(Oc2ncnc3c2ncn3Cc2ccccc2)cc1 | inconclusive: 20 µM [activator, single point]
19 | O=C(COC(=O)c1ccccc1C(=O)N1CCN(c2ccccc2)CC1)Nc1ccccc1 | inconclusive: 35.5 µM [activator, single point]
20 | COc1ccc(-c2c(O)c3cc(O)cc(O)c3oc2=O)cc1 | inactive
21 | COc1nnnc2c1sc1nc(N3CCOCC3)c3c(c12)CC(C)(C)OC3 | inconclusive: 35.5 µM [inhibitor, single point]
22 | O=C(O)COc1ccccc1/C=N/NC(=O)c1ccc2c(c1)OCCO2 | inconclusive: 15.8 µM [inhibitor, single point]

An excerpt from above in order of length of the SMILES, falling.
Row | SMILES | Potency
8 | Cc1ccc(S(=O)(=O)N/N=C/c2cccc3c2OCCO3)cc1 | inconclusive: 10 µM [activator, partial curve]
20 | COc1ccc(-c2c(O)c3cc(O)cc(O)c3oc2=O)cc1 | inactive
16 | O=S(=O)(NCC1CCCO1)c1ccc(Cl)nc1 (configuration not stated) | inactive
